Results deposited as PubChem BioAssay AID1224830 (NIAID, 2016)

Aim: 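Host factors that control LPS-induced TNF expression in human macrophages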 (primary screen)
System: human THP-1 monocytic leukaemia cells, TNF dual-luciferase reporter clone, PMA-differentiated to macrophage-like cells
Knock-down reagent: siRNA pool against human genes, 50 nM
Timing: LPS for 4 h, given about 3 days after siRNA transfection
Treatment: bacterial LPS (TLR4 ligand), 10 ng/ml
Measurement: 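TNF firefly reporter luminescence divided by renilla, normalised to the plate median, then turned into a robust z-score for each replicate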
Direction: TNF reporter robust z-score: higher = stronger TNF reporter response to LPS
Call rule: 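Each well counts as active if its z-score is over 2.8 or under -1.5; controls are left without a call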
Here is an unselected part of about 18,000 reagents. In the full data, about 2,900 (16%) are marked active. 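Calls are made per well; low scores hint the gene aids the LPS response, high scores that it dampens it.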 Unmarked entries are inactive. Repeated entries: four replicate wells of each siRNA pool.

The first 2 entries as a preview:
OR11L1 → TNF reporter robust z-score = 0
OR11L1 → TNF reporter robust z-score = 0.75

Main list, repeating the preview:
OR11L1 → TNF reporter robust z-score = 0
OR11L1 → TNF reporter robust z-score = 0.75
OR11L1 → TNF reporter robust z-score = -0.5
OR11L1 → TNF reporter robust z-score = -1.1
DHRS4 → TNF reporter robust z-score = 1.69
DHRS4 → TNF reporter robust z-score = 1.29
DHRS4 → TNF reporter robust z-score = -0.39
DHRS4 → TNF reporter robust z-score = -0.07
RAB9A → TNF reporter robust z-score = 0.44
RAB9A → TNF reporter robust z-score = -1.22
RAB9A → TNF reporter robust z-score = -0.07
RAB9A → TNF reporter robust z-score = 0.61
LPCAT1 → TNF reporter robust z-score = -0.07
LPCAT1 → TNF reporter robust z-score = -0.41
LPCAT1 → TNF reporter robust z-score = -0.22
LPCAT1 → TNF reporter robust z-score = -0.67
GABPB1 → TNF reporter robust z-score = 0.5
GABPB1 → TNF reporter robust z-score = 0.28
GABPB1 → TNF reporter robust z-score = 0.62
GABPB1 → TNF reporter robust z-score = 0.07
FAM186B → TNF reporter robust z-score = 0.05
FAM186B → TNF reporter robust z-score = -0.19
FAM186B → TNF reporter robust z-score = -0.38
FAM186B → TNF reporter robust z-score = -0.17
DHDDS → TNF reporter robust z-score = -0.73
DHDDS → TNF reporter robust z-score = -0.19
DHDDS → TNF reporter robust z-score = -0.4
DHDDS → TNF reporter robust z-score = -0.07
EPB42 → TNF reporter robust z-score = 0
EPB42 → TNF reporter robust z-score = 1.52
EPB42 → TNF reporter robust z-score = 0.01
EPB42 → TNF reporter robust z-score = 0.4
RAB5B → TNF reporter robust z-score = 0.96
RAB5B → TNF reporter robust z-score = 0.27
RAB5B → TNF reporter robust z-score = 0.31
RAB5B → TNF reporter robust z-score = 1.04
NSL1 → TNF reporter robust z-score = -0.54
NSL1 → TNF reporter robust z-score = 1.1
NSL1 → TNF reporter robust z-score = 0.44
NSL1 → TNF reporter robust z-score = 1.37
GFAP → TNF reporter robust z-score = -0.31
GFAP → TNF reporter robust z-score = -0.26
GFAP → TNF reporter robust z-score = -0.86
GFAP → TNF reporter robust z-score = 0.29
GPLD1 → TNF reporter robust z-score = -0.51
GPLD1 → TNF reporter robust z-score = 0.27
GPLD1 → TNF reporter robust z-score = -0.28
GPLD1 → TNF reporter robust z-score = -0.02
